From article PMC3865339
Results are given in words; binding and its absence hold for the method and conditions named. In cells and extracts the contact can be indirect. Some results given as binding are weak or reduced against the parent protein; the word gives no strength.

Protein sequences, listed by entry. Tags and fused reporters are not part of them.
UniProt Q92766: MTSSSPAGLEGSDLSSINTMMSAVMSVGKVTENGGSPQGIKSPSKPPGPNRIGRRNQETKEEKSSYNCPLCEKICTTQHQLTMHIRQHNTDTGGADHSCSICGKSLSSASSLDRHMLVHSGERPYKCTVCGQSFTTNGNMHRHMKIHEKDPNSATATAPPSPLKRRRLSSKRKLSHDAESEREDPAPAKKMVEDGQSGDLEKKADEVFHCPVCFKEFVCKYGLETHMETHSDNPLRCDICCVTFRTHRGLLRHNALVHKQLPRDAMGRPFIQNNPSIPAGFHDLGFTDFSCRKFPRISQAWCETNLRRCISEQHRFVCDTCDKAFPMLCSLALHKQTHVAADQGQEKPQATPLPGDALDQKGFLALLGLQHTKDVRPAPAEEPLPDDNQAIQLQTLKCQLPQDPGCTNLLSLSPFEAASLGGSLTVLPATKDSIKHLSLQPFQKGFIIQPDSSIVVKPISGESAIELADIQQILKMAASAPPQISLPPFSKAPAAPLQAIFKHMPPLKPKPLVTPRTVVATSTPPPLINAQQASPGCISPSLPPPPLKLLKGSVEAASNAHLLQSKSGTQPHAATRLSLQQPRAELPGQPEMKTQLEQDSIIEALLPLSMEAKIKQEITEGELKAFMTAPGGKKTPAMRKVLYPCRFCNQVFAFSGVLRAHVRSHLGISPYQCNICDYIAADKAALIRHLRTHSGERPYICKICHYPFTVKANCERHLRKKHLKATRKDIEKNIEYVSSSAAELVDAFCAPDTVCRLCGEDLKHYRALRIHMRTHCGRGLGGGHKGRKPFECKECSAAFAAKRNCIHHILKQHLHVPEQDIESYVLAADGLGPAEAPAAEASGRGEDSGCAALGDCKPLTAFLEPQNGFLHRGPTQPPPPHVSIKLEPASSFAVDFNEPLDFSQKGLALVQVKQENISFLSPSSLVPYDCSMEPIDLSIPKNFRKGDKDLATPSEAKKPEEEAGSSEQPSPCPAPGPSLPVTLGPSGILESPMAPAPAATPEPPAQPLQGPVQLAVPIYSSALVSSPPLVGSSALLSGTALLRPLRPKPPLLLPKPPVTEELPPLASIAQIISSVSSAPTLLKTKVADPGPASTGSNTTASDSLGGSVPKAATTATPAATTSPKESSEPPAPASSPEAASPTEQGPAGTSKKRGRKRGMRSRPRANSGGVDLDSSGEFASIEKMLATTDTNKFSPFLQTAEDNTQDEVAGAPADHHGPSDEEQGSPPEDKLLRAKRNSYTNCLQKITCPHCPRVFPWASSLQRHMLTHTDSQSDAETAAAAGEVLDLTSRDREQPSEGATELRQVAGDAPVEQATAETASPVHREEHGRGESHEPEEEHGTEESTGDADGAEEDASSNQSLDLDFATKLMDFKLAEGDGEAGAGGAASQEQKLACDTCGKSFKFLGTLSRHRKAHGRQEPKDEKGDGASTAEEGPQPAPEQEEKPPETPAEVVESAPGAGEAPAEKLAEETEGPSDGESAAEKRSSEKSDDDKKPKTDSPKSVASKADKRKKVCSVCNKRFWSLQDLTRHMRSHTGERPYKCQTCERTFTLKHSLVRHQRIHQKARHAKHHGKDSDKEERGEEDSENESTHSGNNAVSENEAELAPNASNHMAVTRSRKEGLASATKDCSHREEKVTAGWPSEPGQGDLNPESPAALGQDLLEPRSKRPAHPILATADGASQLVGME
UniProt P08047: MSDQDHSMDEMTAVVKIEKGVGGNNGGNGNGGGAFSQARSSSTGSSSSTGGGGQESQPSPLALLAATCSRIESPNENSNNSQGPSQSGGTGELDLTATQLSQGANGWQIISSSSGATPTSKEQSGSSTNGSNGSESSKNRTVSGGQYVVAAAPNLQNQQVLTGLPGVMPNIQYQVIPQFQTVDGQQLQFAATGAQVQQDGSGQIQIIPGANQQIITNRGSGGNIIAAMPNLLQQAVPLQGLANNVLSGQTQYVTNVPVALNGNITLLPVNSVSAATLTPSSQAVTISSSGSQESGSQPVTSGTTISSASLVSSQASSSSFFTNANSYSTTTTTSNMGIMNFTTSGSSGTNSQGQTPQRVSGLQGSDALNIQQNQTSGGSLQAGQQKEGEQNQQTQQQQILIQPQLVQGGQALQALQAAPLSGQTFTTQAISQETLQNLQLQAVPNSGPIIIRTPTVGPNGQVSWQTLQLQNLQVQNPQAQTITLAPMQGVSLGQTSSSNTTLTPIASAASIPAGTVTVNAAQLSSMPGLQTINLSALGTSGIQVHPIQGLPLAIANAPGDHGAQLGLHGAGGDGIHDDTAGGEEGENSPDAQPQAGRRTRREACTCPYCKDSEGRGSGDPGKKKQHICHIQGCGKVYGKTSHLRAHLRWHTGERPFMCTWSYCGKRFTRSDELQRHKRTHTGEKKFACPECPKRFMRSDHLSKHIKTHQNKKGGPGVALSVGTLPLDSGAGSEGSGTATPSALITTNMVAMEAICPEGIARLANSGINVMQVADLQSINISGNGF
UniProt Q99497: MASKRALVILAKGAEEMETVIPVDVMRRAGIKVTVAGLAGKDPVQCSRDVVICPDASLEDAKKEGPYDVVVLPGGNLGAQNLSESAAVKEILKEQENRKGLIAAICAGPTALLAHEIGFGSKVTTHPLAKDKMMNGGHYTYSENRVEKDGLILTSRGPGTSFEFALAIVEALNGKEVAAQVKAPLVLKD

Assays:
Assay in all cases: co-IP; endogenous proteins of SH-SY5Y nuclear extracts immunoprecipitated with anti-RREB1, anti-DJ-1 or anti-Sp1 antibody or normal IgG; precipitates analysed by Western blotting with anti-RREB1, anti-Sp1 or anti-DJ-1 antibody; n = 3
[1] = target: Ras-responsive element-binding protein 1 (RREB1) (human (endogenous in SH-SY5Y)) (UniProt Q92766)
[2] = target: Sp1 (human (endogenous in SH-SY5Y)) (UniProt P08047)
[3] = target: DJ-1 (human (endogenous in SH-SY5Y)) (UniProt Q99497)

Substance	binding [1]	binding [2]	binding [3]
DJ-1 (from UniProt Q99497 1-189)	binds	no binding	–
Sp1 (from UniProt P08047 1-785)	no binding	–	no binding
